Experimental data reported in PMC5095031.
No constants are given. Whether binding was seen depends on the method and setting. For some of these results: In cells and extracts the contact can be indirect. Some binding calls cover weakened binding; strength is not graded here. For some of these results: Tags and fused reporters may be left off the sequences shown.

By UniProt entry, the sequences of proteins in these tests, tags left out. Where a name states a change or a piece, a line headed by the entry shows the natural chain unless it says otherwise.
UniProt Q96FW1: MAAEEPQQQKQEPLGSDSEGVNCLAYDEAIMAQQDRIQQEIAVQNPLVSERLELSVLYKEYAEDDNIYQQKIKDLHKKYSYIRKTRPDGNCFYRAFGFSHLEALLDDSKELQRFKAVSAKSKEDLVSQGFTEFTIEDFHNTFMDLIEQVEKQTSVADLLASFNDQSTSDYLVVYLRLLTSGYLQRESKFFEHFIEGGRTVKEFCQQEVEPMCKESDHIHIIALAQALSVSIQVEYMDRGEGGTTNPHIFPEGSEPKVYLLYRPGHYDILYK

T1: GST-FOXM1 (UniProt Q08050)
T1 sequence: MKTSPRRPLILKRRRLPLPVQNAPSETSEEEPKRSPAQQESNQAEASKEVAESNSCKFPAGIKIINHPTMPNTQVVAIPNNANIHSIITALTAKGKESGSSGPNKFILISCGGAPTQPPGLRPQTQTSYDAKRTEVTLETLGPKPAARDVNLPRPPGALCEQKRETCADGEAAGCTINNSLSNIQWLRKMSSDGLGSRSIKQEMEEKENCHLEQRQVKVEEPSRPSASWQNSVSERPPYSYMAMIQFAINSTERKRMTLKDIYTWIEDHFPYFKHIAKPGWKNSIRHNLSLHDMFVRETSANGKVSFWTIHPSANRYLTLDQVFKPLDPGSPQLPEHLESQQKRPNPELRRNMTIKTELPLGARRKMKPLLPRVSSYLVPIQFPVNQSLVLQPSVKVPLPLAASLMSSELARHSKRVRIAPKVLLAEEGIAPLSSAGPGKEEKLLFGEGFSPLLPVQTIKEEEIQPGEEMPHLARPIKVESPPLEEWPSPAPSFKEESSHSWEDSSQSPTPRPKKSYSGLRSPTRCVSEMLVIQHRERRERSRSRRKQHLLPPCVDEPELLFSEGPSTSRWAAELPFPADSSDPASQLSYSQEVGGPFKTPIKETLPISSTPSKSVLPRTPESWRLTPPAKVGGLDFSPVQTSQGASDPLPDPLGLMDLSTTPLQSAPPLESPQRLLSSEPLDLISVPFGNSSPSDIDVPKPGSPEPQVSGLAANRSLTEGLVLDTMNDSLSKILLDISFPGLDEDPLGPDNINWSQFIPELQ

T2: FOXM1 (in vivo co-IP of Figure 5C) (UniProt Q08050)
T2 sequence: T1 sequence

B1: endogenous FOXM1 (CAOV3 cells) (protein, UniProt Q08050 1-763)
chain: T1 sequence

Legend:
GST-FOXM1 = target: T1, GST-FOXM1; test: pull-down; GST-pulldown: purified GST fusion protein incubated with purified HIS-OTUB1 proteins in 25 mM tris pH 8.0, 75 mM NaCl, 2.5 mM EDTA, 5 mM MgCl2, 2.5 mM DTT, 1% NP-40 at 37°C for 30 min; glutathione sepharose 4B; washes 100 to 400 mM NaCl; both purified
[1] = target: T2, FOXM1 (in vivo co-IP of Figure 5C); test: co-IP; in vivo co-IP of OTUB1 full length and truncations with FOXM1; cell line not stated; 15% of lysate as input
[2] = target: endogenous OTUB1 (CAOV3 cells) (human (endogenous in CAOV3)) (UniProt Q96FW1); test: co-IP; IP of endogenous proteins from CAOV3 lysates, reciprocal; also after siRNA knockdown of OTUB1 or FOXM1; 15% of lysate as input

Molecule	binding (GST-FOXM1)	binding [1]	also measured
HIS-tagged OTUB1^ΔN15 (from UniProt Q96FW1 16-271) (domain or fragment)	binds		
HIS-tagged OTUB1^ΔN46 (from UniProt Q96FW1 47-271) (domain or fragment)	binds		
HIS-tagged OTUB1^ΔN171-271 (from UniProt Q96FW1 1-170) (domain or fragment)	binds		
OTUB1^ΔN15 (in vivo co-IP of Figure 5C) (from UniProt Q96FW1 16-271) (domain or fragment)		binds	
OTUB1^ΔN46 (in vivo co-IP of Figure 5C) (from UniProt Q96FW1 47-271) (domain or fragment)		binds	
OTUB1^ΔN171-271 (in vivo co-IP of Figure 5C) (from UniProt Q96FW1 1-170) (domain or fragment)		binds	
B1			binding [2]: binds
